According to paper PMC4458714:
Results are given in words; binding and its absence hold for the method and conditions named. Binding seen in cells or lysates may run through a third protein. For some assays here: Binding calls can cover weak binding; strength is not graded here.

What was measured:
[1] = target: MEP-1 (Drosophila melanogaster (endogenous in S2 cells)); assay: co-IP; endogenous proteins from S2 cell extracts after RNase treatment, Western blot for Topo II
[2] = target: MEP-1 (Drosophila melanogaster (endogenous in S2 cells)); assay: co-IP; endogenous proteins: 2 mg untransfected S2 cell extract with a specific antibody (anti-MEP-1, anti-Mi-2 or anti-p66) overnight at 4 °C, Protein G agarose, Western blot; with or without MSL2 knockdown; mock IP with generic IgG

binding [1]: no binding (only after RNase treatment) | binding [2]: binds
B1: Topo II (protein, UniProt P15348 1-1447)
chain: MENGNKALSIEQMYQKKSQLEHILLRPDSYIGSVEFTKELMWVYDNSQNRMVQKEISFVPGLYKIFDEILVNAADNKQRDKSMNTIKIDIDPERNMVSVWNNGQGIPVTMHKEQKMYVPTMIFGHLLTSSNYNDDEKKVTGGRNGYGAKLCNIFSTSFTVETATREYKKSFKQTWGNNMGKASDVQIKDFNGTDYTRITFSPDLAKFKMDRLDEDIVALMSRRAYDVAASSKGVSVFLNGNKLGVRNFKDYIDLHIKNTDDDSGPPIKIVHEVANERWEVACCPSDRGFQQVSFVNSIATYKGGRHVDHVVDNLIKQLLEVLKKKNKGGINIKPFQVRNHLWVFVNCLIENPTFDSQTKENMTLQQKGFGSKCTLSEKFINNMSKSGIVESVLAWAKFKAQNDIAKTGGRKSSKIKGIPKLEDANEAGGKNSIKCTLILTEGDSAKSLAVSGLGVIGRDLYGVFPLRGKLLNVREANFKQLSENAEINNLCKIIGLQYKKKYLTEDDLKTLRYGKVMIMTDQDQDGSHIKGLLINFIHTNWPELLRLPFLEEFITPIVKATKKNEELSFYSLPEFEEWKNDTANHHTYNIKYYKGLGTSTSKEAKEYFQDMDRHRILFKYDGSVDDESIVMAFSKKHIESRKVWLTNHMDEVKRRKELGLPERYLYTKGTKSITYADFINLELVLFSNADNERSIPSLVDGLKPGQRKVMFTCFKRNDKREVKVAQLSGSVAEMSAYHHGEVSLQMTIVNLAQNFVGANNINLLEPRGQFGTRLSGGKDCASARYIFTIMSPLTRLIYHPLDDPLLDYQVDDGQKIEPLWYLPIIPMVLVNGAEGIGTGWSTKISNYNPREIMKNLRKMINGQEPSVMHPWYKNFLGRMEYVSDGRYIQTGNIQILSGNRLEISELPVGVWTQNYKENVLEPLSNGTEKVKGIISEYREYHTDTTVRFVISFAPGEFERIHAEEGGFYRVFKLTTTLSTNQMHAFDQNNCLRRFPTAIDILKEYYKLRREYYARRRDFLVGQLTAQADRLSDQARFILEKCEKKLVVENKQRKAMCDELLKRGYRPDPVKEWQRRIKMEDAEQADEEDEEEEEAAPSVSSKAKKEKEVDPEKAFKKLTDVKKFDYLLGMSMWMLTEEKKNELLKQRDTKLSELESLRKKTPEMLWLDDLDALESKLNEVEEKERAEEQGINLKTAKALKGQKSASAKGRKVKSMGGGAGAGDVFPDPDGEPVEFKITEEIIKKMAAAAKVAQAAKEPKKPKEPKEPKVKKEPKGKQIKAEPDASGDEVDEFDAMVEGGSKTSPKAKKAVVKKEPGEKKPRQKKENGGGLKQSKIDFSKAKAKKSDDDVEEVTPRAERPGRRQASKKIDYSSLFSDEEEDGGNVGSDDDGNASDDDSPKRPAKRGREDESSGGAKKKAPPKKRRAVIESDDDDIEIDEDDDDDSDFNC
